These are yes or no findings as the source states them, for the method shown. In cells and extracts the contact can be indirect. These calls come from enrichment with a bait or labelling near it, and not all partners need be listed. Tags and fused reporters may be left off the sequences shown.
Target: T1, MDGA2-GFP (full-length human MDGA2 in pEGFP-N1) (human) (UniProt Q7Z553)
T1 sequence: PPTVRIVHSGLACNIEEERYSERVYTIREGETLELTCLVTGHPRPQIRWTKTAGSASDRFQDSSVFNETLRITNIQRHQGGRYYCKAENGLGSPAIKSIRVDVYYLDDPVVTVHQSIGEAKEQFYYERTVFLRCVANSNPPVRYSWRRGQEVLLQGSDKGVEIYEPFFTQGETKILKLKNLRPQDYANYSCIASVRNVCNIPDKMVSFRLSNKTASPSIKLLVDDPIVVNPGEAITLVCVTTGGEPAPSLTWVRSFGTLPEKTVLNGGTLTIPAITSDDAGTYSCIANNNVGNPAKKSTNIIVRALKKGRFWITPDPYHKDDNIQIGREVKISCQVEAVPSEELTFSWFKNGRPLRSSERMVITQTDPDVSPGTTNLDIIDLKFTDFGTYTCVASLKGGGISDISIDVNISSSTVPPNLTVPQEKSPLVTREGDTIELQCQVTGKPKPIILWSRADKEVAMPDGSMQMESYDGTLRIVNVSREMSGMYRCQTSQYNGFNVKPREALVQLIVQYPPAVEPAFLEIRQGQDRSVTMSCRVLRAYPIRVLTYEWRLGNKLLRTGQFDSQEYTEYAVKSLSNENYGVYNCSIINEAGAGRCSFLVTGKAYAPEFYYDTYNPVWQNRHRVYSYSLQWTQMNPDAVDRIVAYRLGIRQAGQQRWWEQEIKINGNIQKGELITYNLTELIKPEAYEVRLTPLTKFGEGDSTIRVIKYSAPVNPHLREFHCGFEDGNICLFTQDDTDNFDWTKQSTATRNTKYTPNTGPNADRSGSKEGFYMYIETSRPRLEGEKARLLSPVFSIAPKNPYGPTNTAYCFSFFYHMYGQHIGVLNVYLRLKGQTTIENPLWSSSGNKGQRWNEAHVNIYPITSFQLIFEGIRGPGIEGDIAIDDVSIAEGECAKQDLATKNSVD
Test: affinity purification with mass spectrometry; MDGA2-GFP transiently expressed in HEK293T; membrane proteins solubilized in 1% TNEN; pulled down with an anti-GFP antibody; LC-MS/MS

The chains behind the UniProt entries cited, without tags or fusion partners. Residues count along the entry.
UniProt Q99523, residues 78-831: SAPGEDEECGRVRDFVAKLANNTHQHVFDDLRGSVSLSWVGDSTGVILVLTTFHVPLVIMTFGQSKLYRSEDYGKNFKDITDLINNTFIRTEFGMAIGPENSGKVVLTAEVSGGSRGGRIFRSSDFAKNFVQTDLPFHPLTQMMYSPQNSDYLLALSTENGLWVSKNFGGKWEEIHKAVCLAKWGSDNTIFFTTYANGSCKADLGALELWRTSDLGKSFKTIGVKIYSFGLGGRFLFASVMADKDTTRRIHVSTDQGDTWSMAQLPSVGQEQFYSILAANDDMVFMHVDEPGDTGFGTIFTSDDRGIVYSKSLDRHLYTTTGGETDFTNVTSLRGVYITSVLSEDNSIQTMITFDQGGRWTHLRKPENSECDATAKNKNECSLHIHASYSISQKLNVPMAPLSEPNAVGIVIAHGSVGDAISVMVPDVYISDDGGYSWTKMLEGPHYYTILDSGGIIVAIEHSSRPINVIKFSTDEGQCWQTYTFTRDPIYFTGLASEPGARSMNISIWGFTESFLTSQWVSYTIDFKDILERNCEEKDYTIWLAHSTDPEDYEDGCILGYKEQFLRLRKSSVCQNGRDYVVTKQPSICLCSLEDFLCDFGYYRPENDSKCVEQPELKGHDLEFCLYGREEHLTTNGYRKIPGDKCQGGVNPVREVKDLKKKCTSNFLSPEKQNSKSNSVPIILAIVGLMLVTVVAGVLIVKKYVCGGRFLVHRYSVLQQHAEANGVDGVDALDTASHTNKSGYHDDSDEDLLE

How did the binding turn out when “SORT1 (endogenous, HEK293T cells) (from UniProt Q99523 78-831)” was run?
The binding was “binds”.

— paper PMC11729561
